In the supplement of paper PMC6658780 one finds percent growth inhibition data, which are given here for one compound.

± gives the standard deviation of the averaged measurements. This is one part of the list. Single values are uncertain here, since repeats match poorly.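 The A. baumannii clinical isolates were selected for resistance to the partner antibiotic; the screen seeks drugs that restore its effect. Background from coloured compounds is removed by subtracting the start-of-incubation reading.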

For this assay, the system named is Acinetobacter baumannii NCTC-13301. The experiment in a line: percent growth inhibition of drug + antibiotic vs DMSO control; higher = more growth inhibition. As to the method:
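Prestwick drugs tested at 20 uM and 7 uM with an antibiotic at 0.125x MIC (16 mg/L when MIC >128 mg/L) in cation-adjusted Mueller-Hinton broth, 384-well plates, duplicate runs on different days. Percent growth inhibition was computed from OD600 (24 h minus 0 h) relative to DMSO-only wells. Drug + 0.1% DMSO (no antibiotic) wells are also given. Only hits (max corrected inhibition > mean + 3SD) are listed. A. baumannii: NCTC-13301 was used for MEM/CIP/GEN/TGC and WP-487 for colistin. Duplicates with colistin are strongly discordant (run 2 near 100% for most drugs).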

In the case of `CCCCCC[C@H]1C(=O)O[C@H](C)[C@H](NC(=O)c2cccc(NC=O)c2O)C(=O)O[C@@H](C)[C@@H]1OC(=O)CC(C)C` [Antimycin A], the percent growth inhibition reads like this: (antibiotic (0.125x MIC): ciprofloxacin, 7 µM) -19.9 ± 2.5%; (antibiotic (0.125x MIC): ciprofloxacin, 20 µM) -20.6 ± 0.096%; (antibiotic (0.125x MIC): gentamicin, 7 µM) -97.1 ± 36%; (antibiotic (0.125x MIC): gentamicin, 20 µM) -67.4 ± 13%; (antibiotic (0.125x MIC): meropenem, 7 µM) -26.1 ± 24%; (antibiotic (0.125x MIC): meropenem, 20 µM) -21.9 ± 9.7%. Further, the percent growth inhibition runs as follows: (antibiotic (0.125x MIC): tigecycline, 7 µM) -6.29 ± 1.7%; (antibiotic (0.125x MIC): tigecycline, 20 µM) -37.2 ± 50%.
